Patent publication US20210395318A1
Results are given in words; binding and its absence hold for the method and conditions named. Some entries that bind do so weakly or less than the wild type.

Amino acid sequences for entries named in this document (tags omitted). A change or cut given only in a name is not applied to a line headed by its entry. Chains listed by the source or under a name are the forms on record and can include a tag or linker.
biotinylated cynomolgus CD40 (Acro Biosystem) (G7PG38, form named): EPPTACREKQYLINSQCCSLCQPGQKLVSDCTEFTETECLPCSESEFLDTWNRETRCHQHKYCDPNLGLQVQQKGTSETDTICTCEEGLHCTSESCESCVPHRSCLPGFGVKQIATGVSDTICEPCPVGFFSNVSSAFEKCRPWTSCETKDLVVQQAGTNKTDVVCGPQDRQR
UniProt P25942: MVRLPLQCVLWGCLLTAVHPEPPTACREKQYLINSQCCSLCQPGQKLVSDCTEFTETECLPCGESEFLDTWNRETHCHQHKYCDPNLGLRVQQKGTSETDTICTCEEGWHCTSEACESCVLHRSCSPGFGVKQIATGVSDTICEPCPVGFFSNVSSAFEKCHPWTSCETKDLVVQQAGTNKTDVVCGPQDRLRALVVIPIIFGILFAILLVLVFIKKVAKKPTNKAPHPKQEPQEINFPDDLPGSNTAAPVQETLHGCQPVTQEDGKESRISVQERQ

Assays:
[1] = biological target: biotinylated cynomolgus CD40 (Acro Biosystem) (cynomolgus) (UniProt G7PG38); assay: SPR
[2] = biological target: biotinylated human CD40 (Acro Biosystem) (human) (UniProt P25942); assay: SPR
[3] = biological target: biotinylated human CD40 (bio-hCD40-Fc) (human) (UniProt P25942); assay: SPR, sequential injections
[4] = biological target: recombinant hCD40 expressed in Hi5 cells (human tumor necrosis factor receptor superfamily member 5) (human) (UniProt P25942); assay: X-ray crystallography of the complex
[5] = biological target: recombinant hCD40 expressed in Hi5 cells (human tumor necrosis factor receptor superfamily member 5) (human) (UniProt P25942); assay: X-ray crystallography of the complex, 2.29 A

binding [1]	binding [2]	binding [3]	Binder	binding [4]	binding [5]
binds	binds	binds	DARPin Protein #5 (designed binder) GSDLGKKLLEAARAGQDDEVRELLKAGADVNAKDYFSHTPLHLAARNGHLKIVEVLLKAGADVNAKDFAGKTPLHLAAADGHLEIVEVLLKAGADVNAQDIFGKTPADIAADAGHEDIAEVLQKAAGSPTPTPTTPTPTPTTPTPTPTGSDLGKKLLEAARAGQDDEVRILLAAGADVNAKDVLGWTPLHLAAFEGHLEIVEVLLKAGADVNAKDKKGWTPLQLAARTGHLEIVEVLLKAGADVNAKDHIGATPLHLAAWQGHPEIVEVLLKAGADVNAQDKSGKTPADLAADAGHEDIAEVLQKAAGSPTPTPTTPTPTPTTPTPTPTGSDLGKKLLQAARAGQLDEVRELLKAGADVNAKDTWGFTPLHIAAESGHLEIVEVLLKAGADVNAKDVQGRTPLHIAAHSGHLEIVEVLLKAGADVNAKDFRGWTPLHLAAWSGHLEIVEILLKAGADVNAQDKSGKTPADLAARAGHQDIAEVLQKAAGSPTPTPTTPTPTPTTPTPTPTGSDLGKKLLQAARAGQLDEVRELLKAGADVNAKDTWGFTPLHIAAESGHLEIVEVLLKAGADVNAKDVQGRTPLHIAAHSGHLEIVEVLLKAGADVNAKDFRGWTPLHLAAWSGHLEIVEILLKAGADVNAQDKSGKTPADLAARAGHQDIAEVLQKAA		
			CD40-specific DARPin protein with the amino acid sequence of SEQ ID NO: 3 (designed binder) DLGKKLLQAARAGQLDEVRELLKAGADVNAKDTWGFTPLHIAAESGHLEIVEVLLKAGADVNAKDVQGRTPLHIAAHSGHLEIVEVLLKAGADVNAKDFRGWTPLHLAAWSGHLEIVEILLKAGADVNAQDKSGKTPADLAARAGHQDIAEVLQKAA	binds	binds
